{"source": "the supplement of paper PMC4683952", "note": "The list shows a part of the results. No stated cut-off is given here; in the data, active = 2 or more and inactive = the rest. This data set is noisy: repeats of one test often differ as much as different tests do.", "data": [{"system": "Lgr5 (MarsCy1-Lgr5-EGFP, U2OS)", "test": "cell-surface Lgr5 expression (SCi1 fluorescence, background-subtracted) relative to WT DMSO (fold of DMSO control); higher = more Lgr5 at the plasma membrane", "details": "U2OS MarsCy1-Lgr5-EGFP stable; treatment time: overnight; library: ActiProbe-5K (TimTec); 25 µM", "values": [{"compound": "CN(C)Cc1ccc(C(=O)O)o1", "cell-surface Lgr5 expression": "inactive: 1.22"}, {"compound": "COC(=O)c1sc(C(=O)OC)c(O)c1O", "cell-surface Lgr5 expression": "inactive: 1.08"}, {"compound": "N#CC1=C(N)OC2=C(C(=O)CCC2)C1c1ccc(Br)s1", "note": "(stereo not given)", "cell-surface Lgr5 expression": "inactive: 0.925"}, {"compound": "Cc1ccc(/C=N\\c2sc3c(c2C#N)CCCC3)o1", "cell-surface Lgr5 expression": "inactive: 1.05"}, {"compound": "c1csc(-c2nc3sc(-c4cccs4)nc3s2)c1", "cell-surface Lgr5 expression": "inactive: 1.27"}, {"compound": "c1ccc(-n2cnnn2)cc1", "cell-surface Lgr5 expression": "inactive: 0.902"}, {"compound": "C=CCN1C(=O)C2(NC(=O)c3ccccc3N2)c2ccccc21", "note": "(stereo not given)", "cell-surface Lgr5 expression": "inactive: 1.1"}, {"compound": "C(C(N\\N=C1\\CCCC1)=O)C(=O)NCC=C", "cell-surface Lgr5 expression": "inactive: 1.64"}, {"compound": "Sc1nccc2ccccc12", "cell-surface Lgr5 expression": "inactive: 1.17"}, {"compound": "O=[N+]([O-])c1ccc(N2CCCC2)c(C(F)(F)F)c1", "cell-surface Lgr5 expression": "inactive: 1.1"}, {"compound": "O=[N+]([O-])c1ccc([S](=O)(O)Nc2ccc(NS(=O)(=O)c3ccccc3)cc2)cc1", "cell-surface Lgr5 expression": "inactive: 1.01"}, {"compound": "O=c1[nH]cnc2c1nc(N1CCOCC1)n2C1OC(CO)C(O)C1O", "note": "(stereo not given)", "cell-surface Lgr5 expression": "inactive: 1.23"}, {"compound": "Cn1c(=S)oc2ccccc21", "cell-surface Lgr5 expression": "inactive: 1.09"}, {"compound": "COc1ccc2[nH]c(=O)c(=O)[nH]c2c1", "cell-surface Lgr5 expression": "inactive: 1.26"}, {"compound": "O=C([O-])CCNC(=O)c1cc(=O)[nH]c(=O)[nH]1", "cell-surface Lgr5 expression": "inactive: 1.09"}, {"compound": "C=CCOC1CCCCO1", "note": "(stereo not given)", "cell-surface Lgr5 expression": "inactive: 1.44"}, {"compound": "CN1CCN(Cc2c(C(=O)NN)nnn2-c2nonc2N)CC1", "cell-surface Lgr5 expression": "inactive: 1.08"}, {"compound": "N#Cc1c(NC(=O)C2CCCO2)sc2c1CCCC2", "note": "(stereo not given)", "cell-surface Lgr5 expression": "inactive: 1.37"}, {"compound": "Cc1cs/c(=N\\N=C/c2ccc(OCc3ccccc3)cc2)n1N", "cell-surface Lgr5 expression": "inactive: 0.833"}, {"compound": "CN1CCC2(CC1)C(C#N)=C(O)NC1=C2C(=O)CC(C)(C)C1", "cell-surface Lgr5 expression": "inactive: 1.06"}, {"compound": "O=c1cc(-c2cccs2)sc2nc(-c3ccco3)nn12", "cell-surface Lgr5 expression": "inactive: 1.05"}, {"compound": "Cc1n[nH]c(-c2[nH]nc(C)c2[N+](=O)[O-])c1[N+](=O)[O-]", "cell-surface Lgr5 expression": "inactive: 1.45"}, {"compound": "CS(=O)(=O)c1nnnn1-c1ccccc1", "cell-surface Lgr5 expression": "inactive: 0.745"}, {"compound": "Nn1c(SCc2ccccc2F)nnc1-c1ccccc1", "cell-surface Lgr5 expression": "inactive: 1.34"}, {"compound": "NNC(=O)C(C(=O)NN)C1CCS(=O)(=O)C1", "note": "(stereo not given)", "cell-surface Lgr5 expression": "inactive: 1.1"}, {"compound": "Nc1nonc1-c1noc(-c2cc(F)c(F)cc2Cl)n1", "cell-surface Lgr5 expression": "inactive: 0.447"}, {"compound": "N#C/C(=C\\Nc1ccc(F)c(Cl)c1)C(N)=S", "cell-surface Lgr5 expression": "inactive: 1.11"}, {"compound": "Cc1cc(C)n(N)c(=O)c1C(=O)O", "cell-surface Lgr5 expression": "inactive: 1.09"}, {"compound": "NC1=NN(c2ccccc2)CC1", "cell-surface Lgr5 expression": "inactive: 1.18"}, {"compound": "Cc1cc(C(=O)NC(C(=O)[O-])C(C)C)co1.[Na+]", "note": "(stereo not given)", "cell-surface Lgr5 expression": "inactive: 1.13"}, {"compound": "NC(=O)c1c(-c2ccsc2)noc1N", "cell-surface Lgr5 expression": "inactive: 1.03"}, {"compound": "CCOC(=O)c1[nH]c(=O)[nH]c1CC1C(=O)CC(C)(C)CC1=O", "cell-surface Lgr5 expression": "inactive: 1.24"}, {"compound": "Cc1nn(CCl)c(C)c1[N+](=O)[O-]", "cell-surface Lgr5 expression": "inactive: 0.993"}, {"compound": "NC(=O)C1(N2CCCCC2)CCNCC1", "cell-surface Lgr5 expression": "inactive: 1.24"}, {"compound": "CCOC(=O)/C(=C\\C1=CC=C([N+](=O)[O-])C1)NC(=O)c1cccc(C)c1", "cell-surface Lgr5 expression": "inactive: 0.996"}, {"compound": "CCC(C)SCc1cc(C(=O)O)oc1C", "note": "(stereo not given)", "cell-surface Lgr5 expression": "inactive: 1.22"}, {"compound": "O=C1Nc2ccccc2/C1=N\\N1C(=O)C2C=CC=CC2C1=O", "note": "(stereo not given)", "cell-surface Lgr5 expression": "inactive: 1.39"}, {"compound": "Cc1cc(-c2cc(C)[nH]n2)n[nH]1", "cell-surface Lgr5 expression": "inactive: 1.49"}, {"compound": "CCc1cc2c(=O)[nH]c(S)nc2s1", "cell-surface Lgr5 expression": "inactive: 1.47"}, {"compound": "O=C(O)C1CC(=O)N(C2CCCCC2)C1", "note": "(stereo not given)", "cell-surface Lgr5 expression": "inactive: 1.45"}, {"compound": "Cc1c(Br)c([N+](=O)[O-])nn1CC(=O)NNC(=O)Cn1cc([N+](=O)[O-])cn1", "cell-surface Lgr5 expression": "inactive: 1.2"}, {"compound": "Cc1cc(C)n(/N=C/c2ccc(Br)s2)c(=O)c1C#N", "cell-surface Lgr5 expression": "inactive: 0.963"}, {"compound": "c1ccc(C(CNCC2CCCO2)c2ccccc2)cc1", "note": "(stereo not given)", "cell-surface Lgr5 expression": "inactive: 1.56"}, {"compound": "Cc1nc2nonc2c2[nH]ccc(=O)c12", "cell-surface Lgr5 expression": "inactive: 0.91"}, {"compound": "Sc1nc2cc(Cl)cc(Cl)c2o1", "cell-surface Lgr5 expression": "inactive: 1.23"}, {"compound": "c1cc(N2CCCC2)ccn1", "cell-surface Lgr5 expression": "inactive: 1.41"}, {"compound": "O=C(Nc1ccc2c(c1)OCO2)OCCCl", "cell-surface Lgr5 expression": "inactive: 1.13"}, {"compound": "N#CCNC(=O)CSc1nc(SCC(=O)NCC#N)nc(SCC(=O)NCC#N)n1", "cell-surface Lgr5 expression": "inactive: 1.58"}, {"compound": "Cc1ccc(C2C(C(=O)c3ccco3)=C(O)C(=O)N2CCCN(C)C)o1", "note": "(stereo not given)", "cell-surface Lgr5 expression": "inactive: 1.14"}, {"compound": "Cn1cc(S(=O)(=O)Nc2cnn(COc3cccc(Cl)c3)c2)cn1", "cell-surface Lgr5 expression": "inactive: 1.16"}, {"compound": "Cc1c(Br)c(C(F)(F)F)nn1CCC(=O)NC1=NCCS1", "cell-surface Lgr5 expression": "inactive: 1.25"}, {"compound": "CN(C)Cc1c(C#N)c2ccccc2n1C", "cell-surface Lgr5 expression": "inactive: 1.37"}, {"compound": "COC(=O)c1cc(C(C)=O)c(C)o1", "cell-surface Lgr5 expression": "inactive: 1.28"}, {"compound": "CS(=O)(=O)O.c1ccc2c(c1)CCc1c-2n[nH]c1-c1ccncc1", "cell-surface Lgr5 expression": "inactive: 0.918"}, {"compound": "COC(=O)C1=CN(Cc2cccs2)C=C(C(=O)OC)C1c1cccs1", "cell-surface Lgr5 expression": "inactive: 0.859"}, {"compound": "CC1CCN(c2nc(=O)[nH]c(=O)[nH]2)CC1", "cell-surface Lgr5 expression": "inactive: 1.17"}, {"compound": "O=C1c2ccccc2C2=NNS(=O)(=O)c3cccc1c32", "cell-surface Lgr5 expression": "inactive: 1.06"}, {"compound": "Cn1c(=S)n(CN2CCC3(CC2)OCCO3)c2ccccc21", "cell-surface Lgr5 expression": "inactive: 1.12"}, {"compound": "CN(C)S(=O)(=O)N(C)CC12CC3CC(CC(C3)C1)C2", "cell-surface Lgr5 expression": "inactive: 1.46"}, {"compound": "N/N=C1/C2CN3CCN(C2)CC1(Cc1ccccc1)C3", "cell-surface Lgr5 expression": "inactive: 1.31"}, {"compound": "CC1CCC2(CC1)N[C@H](C(=O)O)CS2", "note": "(stereo not given in full)", "cell-surface Lgr5 expression": "inactive: 1.18"}, {"compound": "CC1(C)CC(=O)C2=C(C1)OC(=O)CC2c1cccs1", "note": "(stereo not given)", "cell-surface Lgr5 expression": "inactive: 1.03"}, {"compound": "Cc1ccc2c(c1)c1c3n2CCN(C2CCO2)C3CCC1", "note": "(stereo not given)", "cell-surface Lgr5 expression": "inactive: 1.37"}, {"compound": "CCOC(=O)N1CCN(C(=O)C(C)(C)C)CC1", "cell-surface Lgr5 expression": "inactive: 1.2"}, {"compound": "Cc1n[nH]c(=O)nc1NCCN(C)C", "cell-surface Lgr5 expression": "inactive: 0.911"}, {"compound": "CC(O)Cc1nnc(S)n1C", "note": "(stereo not given)", "cell-surface Lgr5 expression": "inactive: 1.45"}, {"compound": "CC(=O)c1sc(NC(=O)C2CC3CCC2C3)nc1C", "note": "(stereo not given)", "cell-surface Lgr5 expression": "inactive: 1.17"}, {"compound": "N#Cc1c(-c2ccccc2)cc(-c2ccc(F)cc2)nc1F", "cell-surface Lgr5 expression": "active: 2.24"}, {"compound": "Cn1c(Br)nc([N+](=O)[O-])c1Br", "cell-surface Lgr5 expression": "inactive: 0.392"}, {"compound": "CC(=O)OC1COC(C#N)C(OC(C)=O)C1OC(C)=O", "note": "(stereo not given)", "cell-surface Lgr5 expression": "inactive: 1.05"}]}]}
